Reference: the supplement of paper PMC12823440, “Inhibitors supercharge kinase turnover through native proteolytic circuits” (Nature, 2025)
Counter-ions that a name gives are not always drawn. Some of the results follow. The calls rarely recur for the same compound in another form.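 In K562 cells expressing nanoluciferase-fused kinases, luminescence was recorded at 4 h intervals between 2 and 18 h, normalized as percent of control with DMSO at 100% and a positive control at 0%. A significant (2 sigma) signal drop marks a time point as decreased. The authors' rule for a hit is not shown and takes in more than the number of time points.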

Sequences of proteins named here, by UniProt entry; tags and fusion partners are left off.
UniProt P00519, whole entry: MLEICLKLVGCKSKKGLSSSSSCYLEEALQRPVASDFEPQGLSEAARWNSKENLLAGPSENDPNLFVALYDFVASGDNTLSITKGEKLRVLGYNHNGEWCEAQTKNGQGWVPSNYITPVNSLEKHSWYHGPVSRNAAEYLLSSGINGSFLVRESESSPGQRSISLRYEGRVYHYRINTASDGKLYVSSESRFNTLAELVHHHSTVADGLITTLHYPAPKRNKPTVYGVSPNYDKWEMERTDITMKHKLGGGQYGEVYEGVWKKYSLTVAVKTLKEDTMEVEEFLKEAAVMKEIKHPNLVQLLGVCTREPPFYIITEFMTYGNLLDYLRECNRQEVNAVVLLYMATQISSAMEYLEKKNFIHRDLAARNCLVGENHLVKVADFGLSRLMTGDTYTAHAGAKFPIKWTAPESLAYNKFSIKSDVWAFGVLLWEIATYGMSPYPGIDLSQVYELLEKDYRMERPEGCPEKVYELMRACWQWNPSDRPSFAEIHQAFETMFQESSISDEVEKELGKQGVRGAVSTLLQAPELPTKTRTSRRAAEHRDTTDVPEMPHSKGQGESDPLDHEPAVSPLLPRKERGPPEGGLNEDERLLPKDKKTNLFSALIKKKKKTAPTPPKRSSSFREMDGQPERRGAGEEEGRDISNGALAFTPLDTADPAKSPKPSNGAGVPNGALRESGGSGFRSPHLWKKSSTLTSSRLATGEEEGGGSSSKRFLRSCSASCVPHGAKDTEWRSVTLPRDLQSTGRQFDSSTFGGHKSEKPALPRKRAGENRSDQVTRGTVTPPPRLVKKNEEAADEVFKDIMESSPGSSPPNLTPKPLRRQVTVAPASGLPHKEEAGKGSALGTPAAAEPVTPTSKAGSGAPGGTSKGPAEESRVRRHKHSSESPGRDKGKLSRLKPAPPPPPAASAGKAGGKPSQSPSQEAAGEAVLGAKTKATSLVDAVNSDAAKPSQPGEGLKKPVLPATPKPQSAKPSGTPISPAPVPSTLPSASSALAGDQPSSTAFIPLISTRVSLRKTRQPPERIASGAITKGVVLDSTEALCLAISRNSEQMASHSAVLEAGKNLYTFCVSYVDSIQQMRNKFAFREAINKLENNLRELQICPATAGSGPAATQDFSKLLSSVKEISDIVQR

target: ABL1 (UniProt P00519); experiment: kinase-Nluc reporter destabilization hit call (1 = scored as downregulated) (binary); higher = compound decreases kinase abundance; conditions: K562; 2-18 h

kinase-Nluc reporter destabilization hit call, inactive:
O=S(=O)(c1cccc2cnccc12)N1CCNCC1 (10 µM) 0, COc1cc(C(C)=O)cc(OC)c1O [Acetosyringone] (10 µM) 0, CCOc1c([C@H](C)n2nc(C)c3c(N)ncnc32)cc(Cl)c(F)c1[C@@H]1CNC(=O)C1 [Parsaclisib (hydrochloride)] (10 µM) 0, CC[C@H](C)[C@H](NC(=O)[C@H](CCC(=O)O)NC(=O)[C@H](CCCN=C(N)N)NC(=O)[C@H](CCCN=C(N)N)NC(=O)[C@@H](N)CCCCN)C(=O)N[C@@H](CC(C)C)C(=O)N[C@@H](CO)C(=O)N[C@@H](CCCN=C(N)N)C(=O)N[C@@H](CCCN=C(N)N)C(=O)N1CCC[C@H]1C(=O)N[C@@H](CO)C(=O)N[C@@H](Cc1ccc(O)cc1)C(=O)N[C@@H](CCCN=C(N)N)C(=O)O [CREBtide] (10 µM) 0, O=C(O)CCc1ccc(NCc2cccc(Oc3ccccc3)c2)cc1 (10 µM) 0, O[C@H]1CC[C@H](Nc2ncc3nc(Nc4c(F)cc(F)cc4F)n([C@H]4CCOC4)c3n2)CC1 [Tanzisertib] (10 µM) 0, Oc1ccccc1C(=S)N1CCCC1 (10 µM) 0, CC[C@@H]1C(=O)N(C)c2cnc(Nc3ccc(C(=O)N[C@H]4CC[C@H](N5CCN(CC6CC6)CC5)CC4)cc3OC)nc2N1C(C)C [Volasertib] (2.5 µM) 0, C[C@@H]1O[C@@H](OC[C@H]2O[C@@H](Oc3cc(O)c4c(c3)O[C@H](c3ccc(O)cc3)CC4=O)[C@H](O)[C@@H](O)[C@@H]2O)[C@H](O)[C@H](O)[C@H]1O [Narirutin] (10 µM) 0
